{
  "sequences": {"note": "Protein sequences, listed by entry. Tags and fused reporters are not part of them. Lines headed by an entry give the natural chain unless they say otherwise; changes in a name come on top. Residues count along the entry.", "UniProt Q5ZPR3": "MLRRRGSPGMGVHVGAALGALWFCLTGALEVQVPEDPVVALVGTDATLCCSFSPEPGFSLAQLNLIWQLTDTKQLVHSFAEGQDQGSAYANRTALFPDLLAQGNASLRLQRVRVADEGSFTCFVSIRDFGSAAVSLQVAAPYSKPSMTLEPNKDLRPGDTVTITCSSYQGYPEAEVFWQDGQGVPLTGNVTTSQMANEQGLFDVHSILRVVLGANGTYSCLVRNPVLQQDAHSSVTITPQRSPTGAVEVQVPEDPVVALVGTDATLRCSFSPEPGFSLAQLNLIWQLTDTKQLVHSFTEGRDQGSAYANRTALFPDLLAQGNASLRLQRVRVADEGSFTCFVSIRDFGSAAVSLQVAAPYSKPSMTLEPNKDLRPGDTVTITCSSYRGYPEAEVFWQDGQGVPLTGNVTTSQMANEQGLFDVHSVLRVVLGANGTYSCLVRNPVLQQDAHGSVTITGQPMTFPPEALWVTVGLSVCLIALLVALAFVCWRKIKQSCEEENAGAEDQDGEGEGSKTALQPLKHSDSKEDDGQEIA", "CD276 protein on tumor target cells (NCI-H292, SK-OV-3)": "residues 29-534 of Q5ZPR3", "human recombinant CD276 protein (Beijing Sino Biological, catalog number 11188-H08H-B)": "residues 29-461 of Q5ZPR3"},
  "source": "patent EP4703386A1",
  "about": "(Shanghai Sinobay Biotechnology Co., Ltd., dated 2026)",
  "binders": {"B1": {"name": "Hu012-8 (antibody, IgG1, V domains shown)", "VH": "QVQLVQSGAEVKKPGASVRVSCKGSGYTFTDHHMYWVRQAPGQGLEWMGRINPNTGVTNYAQKFQGRVSMTRDTSINTVYLELRSLKSDDAAVYYCGRDQVVMVPGVPLDLGMDVWGQGTTVTVSS", "VL": "NIQMTQSPSSLSASVGDRVTITCRASQTISRYLNWYQQKPGKAPKLLIYAASSLQSGVPSRFSGSGSGADFTLTINTLQPEDFATYYCQQSYRTPQTFGQGTKVEIK", "notes": "Full-length IgG1; also called candidate antibody Hu012-8"}, "B2": {"name": "Hu012-21 Fab (clone supernatant) (Fab, V domains shown)", "VH": "EVQLVQSGGGVVQPGRSLRLSCAASGFTFSSYGMHWVRQAPGKGLEWVAVISYDGSNKYYADSVKGRFTISRDNSKDTLYLQMNSLRAEDTAVYYCAKDKLMGWHNYGMDVWGQGTTVTVSS", "VL": "AIQLTQSPSSLSASVGDRVTITCRASQSINSYLNWYQQKPGKAPKVLIYAASNLQSGVPSRFSGSGSGTDFTLTISSLQPEDFATYYCQQSYSTPPTFGQGTKLEIK"}, "B3": {"name": "Hu012-24 Fab (clone supernatant) (Fab, V domains shown)", "VH": "EVQLVQSGGGLVKPGGSLRLSCAASGFTFSRHSMNWVRQAPGKGLEWVSSISSNDEHIIYADSVKGRFTISRDNSKNTLYLEMNSLRAEDTAVYYCARASRYGGSYYGLDYWGQGTLVTVSS", "VL": "QTVVTQEPSFSVSPGGTVTLTCGLTSGSVSTTYFPSWYQQTPGQPPRRLIYNTNTRSSGVPDRFSGSIVGIKAALTITGAQAEDESDYYCALYLGSGIVEFGGGTKLTVL"}, "B4": {"name": "Hu012-3 Fab (clone supernatant) (Fab, V domains shown)", "VH": "QVQLVQSGAEVKKPGESLRISCKGSGYSFTSYWISWVRQMPGKGLEWMGRIDPSDSYTNYSPSFQGHVTISADKSISTAYLQWSSLKASDTAMYYCARHDASGGGPSDYWGQGTLVTVSS", "VL": "QSVLTQPPSVSAAPGQRVTISCSGSSSNIGDHYVSWYQQLPGTAPKLLIYDNNKRPSGIPDRFSGSKSGTSATLGITGLQTGDEADYYCGTWDSSLSVPNWVFGGGTKVTVL"}, "B5": {"name": "Hu012-6 Fab (clone supernatant) (Fab, V domains shown)", "VH": "QMQLVQSGGGLVQPGGSLRLSCAASGFTFSSYWMSWVRQAPGKGLEWVANIKQDGSEKYYVDSVKGRFTISRDNAKNSLYLQMNSLRAEDTAVYYCARSPHYDFWRRDYYYGMDVWGQGTLVTVSS", "VL": "QSVLTQPPSVSATPGQTVTISCSGSTSNIATNYVSWYQHLPGSAPKLLIYDNNKRPSGIPDRFSGSKSGTSATLDIIGLQTGDEADYYCGVWDPSLTTYVFGTGTQLTAL"}, "B6": {"name": "Hu012-14 Fab (clone supernatant) (Fab, V domains shown)", "VH": "EVQLVETGGGLVQPGGSLRLSCAASGFTFSSYGMTWVRQPPGKGLEWVSHISGSGTNTYYADSVKGRFTISRDNSKNTLYLQMNNLGAEDTAVYYCAKLKWGHSGYGDYWGQGTTVTVSS", "VL": "EIVLTQSPATLSLSPGERATLSCRASQTISRYLAWYQQKPGQAPRLLIYDASNRATGIPARFSGSGSDTDFTLTISSIEPEDFAVYYCQERSNWPQVTFGPGTKLEIK"}, "B7": {"name": "Hu012-13 Fab (clone supernatant) (Fab, V domains shown)", "VH": "EVQLVQSGAEVKKPGASVKVSCKASGYTFTSYGISWVRQAPGQGLEWMGWISAYNGNTNYAQKLQGRVTMTTDTSTSTAYMELRSLRSDDTAVYYCARAPYYGGYDYWGQGTMVTVSS", "VL": "ETTLTQSPGTLSLSPGDRATLSCRASQSVRSSYLAWYQQKPGQAPRLVIYGASNRAAGIPDRFSGSGSGTDFTLTISGLEPEDFAVYYCQEYGYSLPNTFGQGTKLEIK"}, "B8": {"name": "Hu012-8 Fab (clone supernatant) (Fab, V domains shown)", "VH": "B1 VH", "VL": "B1 VL"}},
  "note": "These are yes or no findings as the source states them, for the method shown. Some results given as binding are weak or reduced against the parent protein; the word gives no strength.",
  "data": [
    {"molecular_target": "CD276 protein on tumor target cells (NCI-H292, SK-OV-3) (human) (UniProt Q5ZPR3)", "experiment": "flow cytometry on NCI-H292 cell line (Fig. 3)", "values": [
      {"binder": "B1", "binding": "binds"}
    ]},
    {"molecular_target": "human recombinant CD276 protein (Beijing Sino Biological, catalog number 11188-H08H-B) (human) (UniProt Q5ZPR3)", "experiment": "ELISA of phage-library clones on CD276 protein", "values": [
      {"binder": "B2", "binding": "binds"},
      {"binder": "B3", "binding": "binds"},
      {"binder": "B4", "binding": "binds"},
      {"binder": "B5", "binding": "binds"},
      {"binder": "B6", "binding": "binds"},
      {"binder": "B7", "binding": "binds"},
      {"binder": "B8", "binding": "binds"}
    ]},
    {"molecular_target": "human recombinant CD276 protein (Beijing Sino Biological, catalog number 11188-H08H-B) (human) (UniProt Q5ZPR3)", "experiment": "ELISA of clone supernatants on antigen CD276 (Fig. 1)", "values": [
      {"binder": "B2", "binding": "binds"},
      {"binder": "B3", "binding": "binds"},
      {"binder": "B4", "binding": "binds"},
      {"binder": "B5", "binding": "binds"},
      {"binder": "B6", "binding": "binds"},
      {"binder": "B7", "binding": "binds"},
      {"binder": "B8", "binding": "binds"}
    ]},
    {"molecular_target": "CD276 protein on tumor target cells (NCI-H292, SK-OV-3) (human) (UniProt Q5ZPR3)", "experiment": "flow cytometry on NCI-H292 cells, IgG-Fc-PE second antibody", "values": [
      {"binder": "B1", "binding": "binds"}
    ]},
    {"molecular_target": "human recombinant CD276 protein (Beijing Sino Biological, catalog number 11188-H08H-B) (human) (UniProt Q5ZPR3)", "experiment": "ELISA, plate coated with 2 ug/mL CD276, Fab in clone supernatant, HRP goat anti-human Fab", "values": [
      {"binder": "B2", "binding": "binds"},
      {"binder": "B3", "binding": "binds"},
      {"binder": "B4", "binding": "binds"},
      {"binder": "B5", "binding": "binds"},
      {"binder": "B6", "binding": "binds"},
      {"binder": "B7", "binding": "binds"},
      {"binder": "B8", "binding": "binds"}
    ]}
  ]
}
